According to article PMC4937415, “Peroxiredoxin 1 interacts with and blocks the redox factor APE1 from activating interleukin-8 expression” (Scientific Reports, 2016):
Results are given in words; binding and its absence hold for the method and conditions named. In cells and extracts the contact can be indirect. Here binding means that the protein was enriched with, or labelled near, the bait; the list need not be complete. For some assays here: No binding means not detected with the bait.

By UniProt entry, the sequences of proteins in these tests, tags left out. Residues count along the entry.
UniProt P27695: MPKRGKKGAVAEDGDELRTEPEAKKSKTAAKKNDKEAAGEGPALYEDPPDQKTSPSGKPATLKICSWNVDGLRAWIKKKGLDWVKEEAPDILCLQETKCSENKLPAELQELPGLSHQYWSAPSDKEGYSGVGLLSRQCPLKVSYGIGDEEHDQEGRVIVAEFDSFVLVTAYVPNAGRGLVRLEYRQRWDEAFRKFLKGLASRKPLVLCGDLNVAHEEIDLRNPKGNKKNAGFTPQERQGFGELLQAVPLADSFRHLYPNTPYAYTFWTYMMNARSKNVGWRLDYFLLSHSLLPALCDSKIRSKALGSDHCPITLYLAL
UniProt P06748: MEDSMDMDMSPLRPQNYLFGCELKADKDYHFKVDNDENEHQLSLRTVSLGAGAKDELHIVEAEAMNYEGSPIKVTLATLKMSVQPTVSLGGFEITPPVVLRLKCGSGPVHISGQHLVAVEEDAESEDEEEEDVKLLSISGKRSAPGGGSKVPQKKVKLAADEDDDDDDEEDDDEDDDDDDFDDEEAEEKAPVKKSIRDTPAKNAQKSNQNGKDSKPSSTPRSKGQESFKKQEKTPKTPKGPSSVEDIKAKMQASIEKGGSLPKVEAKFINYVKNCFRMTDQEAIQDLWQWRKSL
UniProt P02545, residues 1-646: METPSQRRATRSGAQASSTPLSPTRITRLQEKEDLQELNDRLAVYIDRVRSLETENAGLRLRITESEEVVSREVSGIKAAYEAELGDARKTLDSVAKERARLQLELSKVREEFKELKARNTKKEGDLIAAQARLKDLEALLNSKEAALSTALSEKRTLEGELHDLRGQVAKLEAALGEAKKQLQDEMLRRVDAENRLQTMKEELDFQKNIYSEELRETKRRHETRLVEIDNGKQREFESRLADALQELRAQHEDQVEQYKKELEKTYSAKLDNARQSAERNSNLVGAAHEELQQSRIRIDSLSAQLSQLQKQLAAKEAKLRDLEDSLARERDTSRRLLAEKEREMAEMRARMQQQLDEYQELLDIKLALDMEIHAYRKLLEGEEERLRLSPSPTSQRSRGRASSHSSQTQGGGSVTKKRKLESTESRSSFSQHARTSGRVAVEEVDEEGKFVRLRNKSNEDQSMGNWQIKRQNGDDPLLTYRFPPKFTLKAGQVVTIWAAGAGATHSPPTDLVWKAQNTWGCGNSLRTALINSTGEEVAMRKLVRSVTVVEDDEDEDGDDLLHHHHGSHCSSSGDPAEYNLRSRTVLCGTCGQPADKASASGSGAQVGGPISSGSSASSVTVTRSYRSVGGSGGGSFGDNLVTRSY

Key:
[1] = biological target: FH-APE1 (N-terminal FLAG-HA tagged APE1) (human) (UniProt P27695); experiment: condition: only cells treated with 100 μM H2O2 for 1 h; affinity purification with mass spectrometry; tandem affinity purification of FH-APE1 from nuclear extract of HeLaS cells treated with 100 μM H2O2 for 1 h
[2] = biological target: FH-APE1 (N-terminal FLAG-HA tagged APE1) (human) (UniProt P27695); experiment: affinity purification with mass spectrometry; tandem anti-FLAG then anti-HA resins from nuclear extract of HeLaS cells expressing FH-APE1 (untreated or 25 μM H2O2 for 1 h); whole HA eluate to mass spectrometry; hit limit three unique peptides; empty vector pOZ as control
[3] = biological target: FH-APE1 (N-terminal FLAG-HA tagged APE1) (human) (UniProt P27695); experiment: affinity purification with mass spectrometry; tandem affinity purification of FH-APE1 from nuclear extract of HeLaS cells treated with 100 μM H2O2 for 1 h
[4] = biological target: FH-APE1 (N-terminal FLAG-HA tagged APE1) (human) (UniProt P27695); experiment: affinity purification with mass spectrometry; tandem anti-FLAG then anti-HA resins from the cytosolic fraction of HeLaS cells expressing FH-APE1 (untreated or 25 μM H2O2 for 1 h); whole HA eluate to mass spectrometry

Row | Molecule | binding [1] | binding [2] | binding [3] | binding [4]
1 | PRDX6 (protein, UniProt P30041 1-224) MPGGLLLGDVAPNFEANTTVGRIRFHDFLGDSWGILFSHPRDFTPVCTTELGRAAKLAPEFAKRNVKLIALSIDSVEDHLAWSKDINAYNCEEPTEKLPFPIIDDRNRELAILLGMLDPAEKDEKGMPVTARVVFVFGPDKKLKLSILYPATTGRNFDEILRVVISLQLTAEKRVATPVDWKDGDSVMVLPTIPEEEAKKLFPKGVFTKELPSGKKYLRYTPQP | – | – | – | binds
2 | PRDX2 (protein, UniProt P32119 1-198) MASGNARIGKPAPDFKATAVVDGAFKEVKLSDYKGKYVVLFFYPLDFTFVCPTEIIAFSNRAEDFRKLGCEVLGVSVDSQFTHLAWINTPRKEGGLGPLNIPLLADVTRRLSEDYGVLKTDEGIAYRGLFIIDGKGVLRQITVNDLPVGRSVDEALRLVQAFQYTDEHGEVCPAGWKPGSDTIKPNVDDSKEYFSKHN | – | – | – | binds
3 | PDIA6 (protein, UniProt Q15084 20-440) LYSSSDDVIELTPSNFNREVIQSDSLWLVEFYAPWCGHCQRLTPEWKKAATALKDVVKVGAVDADKHHSLGGQYGVQGFPTIKIFGSNKNRPEDYQGGRTGEAIVDAALSALRQLVKDRLGGRSGGYSSGKQGRSDSSSKKDVIELTDDSFDKNVLDSEDVWMVEFYAPWCGHCKNLEPEWAAAASEVKEQTKGKVKLAAVDATVNQVLASRYGIRGFPTIKIFQKGESPVDYDGGRTRSDIVSRALDLFSDNAPPPELLEIINEDIAKRTCEEHQLCVVAVLPHILDTGAAGRNSYLEVLLKLADKYKKKMWGWLWTEAGAQSELETALGIGGFGYPAMAAINARKMKFALLKGSFSEQGINEFLRELSFGRGSTAPVGGGAFPTIVEREPWDGRDGELPVEDDIDLSDVELDDLGKDEL | – | – | – | binds

Further lines, results first:

Row | binding [1] | binding [2] | binding [3] | binding [4] | Molecule
4 | no binding | binds | – | – | NPM1 (from UniProt P06748 1-294)
5 | – | binds | binds | – | LMNA (from UniProt P02545 1-646)
6 | no binding | binds | – | binds | Peroxiredoxin 1 (PRDX1) (natural protein, human (endogenous in HeLaS and HeLa), UniProt Q06830 1-199, looked up, endogenous PRDX1 of HeLaS and HeLa cells; monomer 22 kDa, dimeric form 44 kDa on blots; source: endogenous, HeLaS nuclear, cytosolic and total extracts; endogenous, HeLa nuclear extract) MSSGNAKIGHPAPNFKATAVMPDGQFKDISLSDYKGKYVVFFFYPLDFTFVCPTEIIAFSDRAEEFKKLNCQVIGASVDSHFCHLAWVNTPKKQGGLGPMNIPLVSDPKRTIAQDYGVLKADEGISFRGLFIIDDKGILRQITVNDLPVGRSVDETLRLVQAFQFTDKHGEVCPAGWKPGSDTIKPDVQKSKEYFSKQK
7 | – | – | – | binds | PRDX3 (protein, UniProt P30048 62-256) APAVTQHAPYFKGTAVVNGEFKDLSLDDFKGKYLVLFFYPLDFTFVCPTEIVAFSDKANEFHDVNCEVVAVSVDSHFSHLAWINTPRKNGGLGHMNIALLSDLTKQISRDYGVLLEGSGLALRGLFIIDPNGVIKHLSVNDLPVGRSVEETLRLVKAFQYVETHGEVCPANWTPDSPTIKPSPAASKEYFQKVNQ
